Construct, isoform or probe ends are uncertain for at least one entry. At least one result comes from cells or an extract, where the contact may be indirect.
Target: PD-L1 on tumor-infiltrating Treg cells (Hepa1-6 tumors) (Mus musculus (C57BL/6J)) (UniProt Q9EP73)
Assay: flow cytometry cell binding
Settings: comparable to chimera; protein on the cell surface; label: biotin (ELONA), 5'-Cy5 (cell binding); folded or branched DNA

By UniProt entry, the sequences of proteins in these tests, tags left out. Residues count along the entry.
UniProt Q9EP73, 19-290: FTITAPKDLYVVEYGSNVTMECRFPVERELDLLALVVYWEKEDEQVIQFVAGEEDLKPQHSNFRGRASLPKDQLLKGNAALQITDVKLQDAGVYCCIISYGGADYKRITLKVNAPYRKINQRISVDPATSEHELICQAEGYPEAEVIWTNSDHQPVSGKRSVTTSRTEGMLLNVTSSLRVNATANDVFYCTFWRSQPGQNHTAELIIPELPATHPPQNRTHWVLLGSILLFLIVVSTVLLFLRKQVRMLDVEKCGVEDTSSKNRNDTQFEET

Sequence: ACCGACCGTGCTGGACTCATCTCGCTTTTTTCACGGTCCACACTACTATGAGCGAGCCTGGCG [PD-L1 aptamer]
- binding result: binds
